Publication doi:10.1101/2020.09.17.297960
These are yes or no findings as the source states them, for the method shown. Binding seen in cells or lysates may run through a third protein. Some entries that bind do so weakly or less than the wild type.

Chains of the proteins cited; added tags and fusions are not shown.
UniProt Q9NYV4: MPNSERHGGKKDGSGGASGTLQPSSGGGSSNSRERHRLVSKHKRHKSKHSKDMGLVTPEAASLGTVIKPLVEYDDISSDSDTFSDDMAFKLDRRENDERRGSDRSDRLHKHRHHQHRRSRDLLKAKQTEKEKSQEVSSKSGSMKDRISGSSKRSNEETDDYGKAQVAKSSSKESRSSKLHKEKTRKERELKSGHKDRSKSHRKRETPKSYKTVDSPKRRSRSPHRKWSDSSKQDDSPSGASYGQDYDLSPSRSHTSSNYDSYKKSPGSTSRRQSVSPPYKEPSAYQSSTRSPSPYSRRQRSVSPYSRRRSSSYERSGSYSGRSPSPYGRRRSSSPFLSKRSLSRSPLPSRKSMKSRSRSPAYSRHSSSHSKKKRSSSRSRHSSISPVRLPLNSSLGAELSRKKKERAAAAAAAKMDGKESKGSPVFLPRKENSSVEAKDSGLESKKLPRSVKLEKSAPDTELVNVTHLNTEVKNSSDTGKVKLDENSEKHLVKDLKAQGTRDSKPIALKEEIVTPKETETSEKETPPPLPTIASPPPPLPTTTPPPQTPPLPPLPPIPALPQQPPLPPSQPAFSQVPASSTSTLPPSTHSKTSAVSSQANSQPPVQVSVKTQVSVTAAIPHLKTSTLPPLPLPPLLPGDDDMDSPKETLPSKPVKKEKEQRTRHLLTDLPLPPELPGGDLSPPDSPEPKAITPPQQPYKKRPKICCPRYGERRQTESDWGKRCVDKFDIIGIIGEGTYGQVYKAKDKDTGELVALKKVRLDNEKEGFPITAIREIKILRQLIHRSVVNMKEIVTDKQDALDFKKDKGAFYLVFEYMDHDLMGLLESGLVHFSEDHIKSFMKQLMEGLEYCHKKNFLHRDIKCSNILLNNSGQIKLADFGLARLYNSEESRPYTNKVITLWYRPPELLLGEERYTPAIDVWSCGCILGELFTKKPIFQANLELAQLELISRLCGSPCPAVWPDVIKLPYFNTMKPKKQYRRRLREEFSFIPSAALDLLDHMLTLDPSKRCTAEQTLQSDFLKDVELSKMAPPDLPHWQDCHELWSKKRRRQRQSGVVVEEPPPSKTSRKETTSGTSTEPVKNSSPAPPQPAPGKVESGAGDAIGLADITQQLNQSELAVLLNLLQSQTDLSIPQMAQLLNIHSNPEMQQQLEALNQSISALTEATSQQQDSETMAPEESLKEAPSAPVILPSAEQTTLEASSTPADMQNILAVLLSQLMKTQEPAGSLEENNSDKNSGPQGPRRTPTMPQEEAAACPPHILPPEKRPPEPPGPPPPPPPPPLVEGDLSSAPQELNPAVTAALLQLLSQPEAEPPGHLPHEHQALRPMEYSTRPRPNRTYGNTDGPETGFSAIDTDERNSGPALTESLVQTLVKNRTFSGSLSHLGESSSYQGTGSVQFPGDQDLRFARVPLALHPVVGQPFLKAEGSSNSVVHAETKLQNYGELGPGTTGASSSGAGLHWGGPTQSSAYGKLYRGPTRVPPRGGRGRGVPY
UniProt O75909: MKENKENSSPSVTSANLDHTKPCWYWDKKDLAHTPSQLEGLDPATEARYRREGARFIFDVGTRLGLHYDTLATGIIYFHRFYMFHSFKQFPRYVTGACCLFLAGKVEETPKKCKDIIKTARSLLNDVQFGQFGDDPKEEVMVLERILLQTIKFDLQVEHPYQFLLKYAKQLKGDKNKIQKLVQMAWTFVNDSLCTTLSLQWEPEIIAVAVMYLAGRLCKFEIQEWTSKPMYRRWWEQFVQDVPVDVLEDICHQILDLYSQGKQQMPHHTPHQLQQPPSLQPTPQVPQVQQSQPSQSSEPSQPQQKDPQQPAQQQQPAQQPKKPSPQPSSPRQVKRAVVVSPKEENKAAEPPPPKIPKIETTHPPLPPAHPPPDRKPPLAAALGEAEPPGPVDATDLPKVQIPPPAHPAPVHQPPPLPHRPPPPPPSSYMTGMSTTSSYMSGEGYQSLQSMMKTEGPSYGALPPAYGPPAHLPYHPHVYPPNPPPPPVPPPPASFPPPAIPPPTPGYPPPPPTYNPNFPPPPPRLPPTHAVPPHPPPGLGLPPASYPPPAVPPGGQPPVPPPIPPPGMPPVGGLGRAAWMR

Experiments:
CDK12 = CDK12 (UniProt Q9NYV4); assay: co-IP
Cyclin K = Cyclin K (UniProt O75909); assay: co-IP

Cyclin K (from UniProt O75909 1-580)
binding (CDK12): binds

B1: Elongin A (overexpressed) (protein, UniProt Q14241 1-772)
chain: MAAESALQVVEKLQARLAANPDPKKLLKYLKKLSTLPITVDILAETGVGKTVNSLRKHEHVGSFARDLVAQWKKLVPVERNAEPDEQDFEKSNSRKRPRDALQKEEEMEGDYQETWKATGSRSYSPDHRQKKHRKLSELERPHKVSHGHERRDERKRCHRMSPTYSSDPESSDYGHVQSPPSCTSPHQMYVDHYRSLEEDQEPIVSHQKPGKGHSNAFQDRLGASQERHLGEPHGKGVVSQNKEHKSSHKDKRPVDAKSDEKASVVSREKSHKALSKEENRRPPSGDNAREKPPSSGVKKEKDREGSSLKKKCLPPSEAASDNHLKKPKHRDPEKAKLDKSKQGLDSFDTGKGAGDLLPKVKEKGSNNLKTPEGKVKTNLDRKSLGSLPKVEETDMEDEFEQPTMSFESYLSYDQPRKKKKKIVKTSATALGDKGLKKNDSKSTGKNLDSVQKLPKVNKTKSEKPAGADLAKLRKVPDVLPVLPDLPLPAIQANYRPLPSLELISSFQPKRKAFSSPQEEEEAGFTGRRMNSKMQVYSGSKCAYLPKMMTLHQQCIRVLKNNIDSIFEVGGVPYSVLEPVLERCTPDQLYRIEEYNHVLIEETDQLWKVHCHRDFKEERPEEYESWREMYLRLQDAREQRLRVLTKNIQFAHANKPKGRQAKMAFVNSVAKPPRDVRRRQEKFGTGGAAVPEKIKIKPAPYPMGSSHASASSISFNPSPEEPAYDGPSTSSAHLAPVVSSTVSYDPRKPTVKKIAPMMAKTIKAFKNRFSRR
binding (CDK12): binds | binding (Cyclin K): binds
